{"sequences": {"note": "Chains of the proteins cited; added tags and fusions are not shown. Residues count along the entry.", "UniProt Q9LKR3, residues 28-669": "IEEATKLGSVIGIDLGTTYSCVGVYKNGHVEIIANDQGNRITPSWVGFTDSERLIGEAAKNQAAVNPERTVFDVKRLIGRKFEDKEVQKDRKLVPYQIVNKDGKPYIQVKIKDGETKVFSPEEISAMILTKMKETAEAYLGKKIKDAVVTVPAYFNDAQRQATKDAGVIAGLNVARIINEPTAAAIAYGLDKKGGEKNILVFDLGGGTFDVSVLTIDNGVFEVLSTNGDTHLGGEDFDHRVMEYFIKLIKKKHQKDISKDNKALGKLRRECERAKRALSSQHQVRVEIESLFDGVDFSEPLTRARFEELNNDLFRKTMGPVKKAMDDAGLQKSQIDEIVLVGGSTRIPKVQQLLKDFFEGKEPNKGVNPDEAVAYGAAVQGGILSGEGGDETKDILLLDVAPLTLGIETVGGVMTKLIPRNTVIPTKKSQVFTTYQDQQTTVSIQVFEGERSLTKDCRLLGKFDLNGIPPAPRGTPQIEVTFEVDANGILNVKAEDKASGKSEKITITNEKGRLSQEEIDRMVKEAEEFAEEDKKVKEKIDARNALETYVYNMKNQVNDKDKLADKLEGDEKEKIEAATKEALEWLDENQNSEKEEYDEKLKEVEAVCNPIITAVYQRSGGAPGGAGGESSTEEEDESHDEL"}, "source": "paper PMC10838158", "biological_target": "T1, AtERdj2A–4M8H (Arabidopsis thaliana) (UniProt Q0WT48)", "T1 sequence": "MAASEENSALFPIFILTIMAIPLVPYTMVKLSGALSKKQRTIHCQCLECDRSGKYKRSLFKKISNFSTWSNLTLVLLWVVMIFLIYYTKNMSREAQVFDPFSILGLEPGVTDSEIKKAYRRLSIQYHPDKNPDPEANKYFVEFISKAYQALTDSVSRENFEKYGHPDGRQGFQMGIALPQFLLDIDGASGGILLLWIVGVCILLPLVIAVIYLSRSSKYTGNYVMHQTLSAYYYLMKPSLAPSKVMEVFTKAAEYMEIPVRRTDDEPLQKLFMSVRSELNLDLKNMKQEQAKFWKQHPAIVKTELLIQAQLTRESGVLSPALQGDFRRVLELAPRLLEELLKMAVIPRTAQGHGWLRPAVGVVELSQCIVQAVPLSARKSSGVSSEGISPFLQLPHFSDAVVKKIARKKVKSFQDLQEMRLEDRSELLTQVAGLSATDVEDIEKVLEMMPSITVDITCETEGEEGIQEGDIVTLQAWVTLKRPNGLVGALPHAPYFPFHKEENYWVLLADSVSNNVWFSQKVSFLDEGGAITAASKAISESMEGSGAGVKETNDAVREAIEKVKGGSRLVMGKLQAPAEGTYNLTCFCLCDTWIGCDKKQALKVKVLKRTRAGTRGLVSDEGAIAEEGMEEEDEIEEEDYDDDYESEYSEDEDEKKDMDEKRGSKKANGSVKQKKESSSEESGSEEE", "assay": "co-IP; in vivo: 4M8H-tagged AtERdj constructs co-expressed with AtBiP1–GFP, CMV MP–GST or GFP in N. benthamiana leaves; total protein (100 µg) with c-Myc affinity beads 4 h at 4 °C; blots with anti-GFP or anti-GST", "note": "No constants are given. Whether binding was seen depends on the method and setting. Binding seen in cells or lysates may run through a third protein. Some entries that bind do so weakly or less than the wild type.", "data": [{"substance": "AtBiP1–GFP (co-expressed in N. benthamiana) (from UniProt Q9LKR3 28-669)", "values": [{"measurement": "binding", "result": "binds"}]}]}
